Measurements from PubChem BioAssay AID1347423 (Functional Genomics Laboratory (NCATS/FGL), 2020).
Among all 52,000 sequences or so, about 210 (0.4%) were called active.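 Rule for the calls: active = gene whose silencing raises cell survival under the drug, median off-target-corrected z-score across its silencing RNAs 2 or more; inactive = the rest.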 The list shows a part of the results.

assay: Resistance to Poly (ADP-Ribose) Polymerase inhibitor: Gene Identification via Genome-wide siRNA Screen; settings: mouse BRCA2 R2336H ES cells, olaparib, CellTiter-Glo viability; active compounds read high
How it was run: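 Genome-wide siRNA screen (3 siRNAs/gene, 20 nM) in mouse ES cells carrying hypomorphic BRCA2 R2336H; olaparib 500 nM added 48 h post-transfection, CellTiter-Glo viability 72 h later. Normalized to plate-median negative control; MAD z-scores, gene median, seed-adjusted.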

Sequence | z-score
GGGCCAACAGAAACAGAAGTT against Otp | inactive: 1.84
GGGCCUUUAAAGUAGUUGATT against D930018N13 | inactive: -0.162
GCAAGCUGAACUACUUGAGTT against Ern1 | inactive: 1.1
CCAAUCAUGAUCUGGGCUCTT against Gng4 | inactive: 1.64
GGUUGCACUCAUCUUAAAATT against Zfp9 | inactive: -0.519
GCACUUAUGGUUUAGAUGUTT against Prdm8 | inactive: -0.158
GGGAGGACAUCCAGACAAUTT against AW060714 | inactive: -3.37
GCAAACUUAUUACCAGGGATT against Shc3 | inactive: -0.383
GCUAAGGACACGCUCUAUCTT against Sema5b | inactive: 0.241
GCGUGCUUUGAAGAGGUUGTT against Olfr298 | inactive: -1.18
CGGUUAGUCUGUCAGUAUCTT against Xrcc3 | inactive: -0.854
GCAAGUCCAUUCUUUUUCATT against 9930032O22Rik | inactive: -0.537
GGAGGCCACCAAAAUUAACTT against Kif17 | inactive: -0.487
CGAGAAGACCAUCAUCAUATT against Rbbp9 | inactive: 0.497
CCUGUAAGGUCUCUAGCAUTT against Exosc1 | inactive: 0.0218
CCGAAGUCAAUGAAGCUCUTT against 5730591C18Rik | inactive: 0.345
GGUCUUUGACAUUUUGAAUTT against 4921513O20Rik | inactive: 0.16
GGCGAUCCUUACUCCAAUGTT against Zfp90 | inactive: 0.2
CCAGUCAAAAGGAAAUGAATT against Dclre1a | inactive: -0.241
GGCUUUGAGAGGAACACCATT against D030001E08 | inactive: 2.85
GGACCAGGUCCGUUGGAAUTT against Efna1 | inactive: -0.424
GGAGAUGAUGUCACCUACATT against BC003236 | inactive: -1.93
CCCAUCAAUGCUGUUAAUUTT against Entpd5 | inactive: 0.715
GGACUAUGUCUUUGACAAATT against Cdyl2 | inactive: 0.465
CGAAGGAUUCAGAUAAAGUTT against Trim13 | inactive: 0.00771
GGAGAUAAAAGUUUCAUCUTT against Jmjd2b | inactive: 0.46

Sequence | z-score
GGGCUCAUGGCUUUGUUUUTT against 1110019N10Rik | inactive: -0.477
GGUCGUCCCAUCAAUGUGCTT against Cpa1 | inactive: 2.99
GGAGGAACGGAAAAAGGUUTT against 1700088E04Rik | inactive: 0.169
GGUCAUGACAGGAUACCCATT against C630035N08Rik | inactive: 1.46
GCAACAACUACGCAUGCUCTT against Snap25 | inactive: -0.391
GCAAUGGAAUUCUCGUGCCTT against Cth | inactive: 0.233
CGGGCUGGAAGAAAUCUCUTT against Rhox3 | inactive: 0.716
GGAUUUGGUGCAUCUUCCGTT against Olfr609 | inactive: -0.617
GGUUAUUUCUUUGCUUUGCTT against Apod | inactive: 0.649
GGCAAAAUGAGUGAGAGGUTT against A030007L17Rik | inactive: -0.038
GGCCGAAGACCCUAAUUUATT against Cklfsf7 | inactive: 0.742
CCCAAGUGCUAACCUAAUATT against 1700020C11Rik | inactive: 0.568
GGGUGGAUUGAGAACAUCATT against 2400002F02Rik | inactive: -0.682
CGGUCUGUGAAAGAUGCAGTT against Vps24 | inactive: -2.21
GGUUCUGUACCAUCUUCAGTT against Rab40c | inactive: -0.0707
GCCGGGAGAGUAAUGUCUGTT against BC059845 | inactive: -1.15
GGGAGUUUUUAUAUGGUUUTT against A130042E20Rik | inactive: -0.657
GCAGCAACAAGAAAUCAGCTT against 1700058C13Rik | inactive: 0.781
GCAGAAUUCACCCGAAACUTT against Tnip1 | inactive: 0.606
CGAUAUCCCAACAGUAAUATT against Nalp6 | inactive: -0.337
GGAGCUUCUAGACUGUACCTT against Lrmp | inactive: -0.51
GGUGGUUAGCGAUGAGAAUTT against Pabpc2 | inactive: -0.515
GGUAGAUCAUGGCCAUCCUTT against Ntf5 | inactive: -0.647
GCUUAUACGAAGAUAAUUGTT against Hmgb1 | inactive: -0.826
GGUCACUUUCAACCUCAUATT against 2310076L09Rik | inactive: -1.67
GGCUGUCAUGCAUUAUAUGTT against Tcfeb | inactive: 0.176

Sequence | z-score
GGUGUUCAUGAGUGCUAUATT against Apg10l | inactive: -0.19
CCAGACAUCGUGCUUUACATT against Chrna3 | inactive: 0.542
GGAGGACCAUUGAAUUAUGTT against AI836003 | inactive: -0.371
GGAGAUGGGCUUCUAUAUUTT against BC018399 | inactive: -1.08
GGCCAACUUCCUUUUUAAATT against Tomm40 | inactive: 0.038
GCUUCUAGGGACCUAUUAATT against Dhx30 | inactive: -1.2
GCAUACAGGAUUUACCGGCTT against 2310056K19Rik | inactive: 1.2
GGAUGUGAAGCAGUUCUAUTT against Cd81 | inactive: -0.702
GGAGAUUGCAUCCUACCUGTT against Camta2 | inactive: 1.35
GGCAAGAGCAAGAAAUGGCTT against Gprk6 | inactive: -0.597
GCAGGCAAAGUUCCUGAUATT against Cdh2 | inactive: 0.743
GGUGUUAUUUUACACAAAGTT against Gla | inactive: 0.526
CGGUAGUCUUGUGUGUUGGTT against Rps27 | inactive: -0.0318
GCCUGAGAAGAUUAUACCATT against Inpp5f | inactive: 0.000779
GGCUGACUUCGUUUUCAUGTT against 1810063P04Rik | inactive: -0.916
GGUUCUGUUCCAGUUUUAATT against Il21 | inactive: -0.214
GGAAUUAGAAAAAGUUUCCTT against Ddx58 | inactive: 0.255
GGCAUCGGGAGUUCCAAUUTT against St18 | inactive: 1.05
GCAAGAAACGGGAACUAUUTT against 0610006F02Rik | inactive: 2.13
GAGAUUUCUCCUGUUAUUUTT against Scd2 | inactive: 0.397
GCAAAUUUGCCCUAAGGACTT against Lpl | inactive: -0.436
GGGAAAUUUGAACAACAACTT against Efnb3 | inactive: 0.665
GGAUGAUAUAUGUAACUUGTT against Nfe2l3 | inactive: -0.7
GGCUUCAUGCCUUAUCCACTT against 4931415M17 | inactive: -0.441
GGGAAUUAGAUGUGUGUAUTT against B930011P16Rik | inactive: -2.41
CGUGCUUAAACUUACUCCATT against Kif18a | inactive: 0.32

4 entries from above, in markdown.

| Sequence | z-score |
| --- | --- |
| GCAUACAGGAUUUACCGGCTT against 2310056K19Rik | inactive: 1.2 |
| GGAUGUGAAGCAGUUCUAUTT against Cd81 | inactive: -0.702 |
| GGCAAGAGCAAGAAAUGGCTT against Gprk6 | inactive: -0.597 |
| GGCUUCAUGCCUUAUCCACTT against 4931415M17 | inactive: -0.441 |

Carrying on:

Sequence | z-score
GGAGGUGUUGAACAAGUGCTT against 1700008P20Rik | inactive: -1.32
GCACACUUACGUUCACAUATT against MGC117751 | inactive: -0.0197
GCUUCUUGAAAGUACAUUGTT against Appbp1 | inactive: 0.298
GGAUCUUGAUACCCUCUACTT against Gp1ba | inactive: 2.63
GCGCGUCUCAAAGCACUUUTT against Tbx15 | inactive: 0.515
CCGGAUCAAGAGCUUUACCTT against Trim29 | inactive: -0.00641
GGGCUUGUAUCUACCAUGGTT against 6430510M02Rik | inactive: 1.53
GGUUGGACUGACUAUCCAUTT against Olfr984 | inactive: -1.9
CCAUCGUGCUAAUAAAUAATT against Gars | inactive: -1.02
GCUGUGGUAAACUGAAACUTT against Glis2 | inactive: -1.11
GGGACAGUUAGUCAGUAAGTT against 3000003F02Rik | inactive: 0.179
CGGUGUAAAAUCAUCAUAGTT against Pcdhgb6 | inactive: -2.54
GGAUGACUGAAUGAUGGGATT against Tcl1b5 | inactive: 1.27
CCGGACCUUAUUGUCAUUUTT against 2010110M21Rik | inactive: 1.9
GGAGAUGAAGGGUAGCAUCTT against Thap11 | inactive: 0.484
CCCUUAAAAUACAACGAUCTT against Prnd | inactive: 0.85
GGGAUGGCCUUUGGUUAAATT against V1rh11 | inactive: 0.916
GAGUAUCAUCUCCUUUUCUTT against Olfr395 | inactive: 0.736
GCCGAUUUUACAUGUGAUCTT against Klf8 | inactive: 0.6
GCCUUAAUGUUUCUGUGAGTT against Pag | inactive: 0.192
GGUGAACCUCAACAGACUCTT against Gtf3c4 | inactive: -1.22
GGAAGAGACGCAAUAAGUGTT against Loh12cr1 | inactive: -0.574
GCCCAUUAAUGCGUAUUUUTT against Mettl2 | inactive: -0.659
GGGCGAGAUUACCAUCUUGTT against Tnfrsf19l | inactive: 0.683
GGAGAGAAUAAACUCUACUTT against Tas2r130 | inactive: 0.477
GGUGCUGAUGAUGAUUAAATT against 0610039D01Rik | inactive: 1.14

For convenience, some entries already given.
Sequence | z-score
GCUGUGGUAAACUGAAACUTT against Glis2 | inactive: -1.11
GGGACAGUUAGUCAGUAAGTT against 3000003F02Rik | inactive: 0.179
CGGUGUAAAAUCAUCAUAGTT against Pcdhgb6 | inactive: -2.54
